Data as given in PubChem BioAssay AID1259308 (NCATS, 2017)

- Aim: 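Knock-downs that increase output of a recombinant reporter protein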 (primary screen)
- System: human HEK293 embryonic kidney cells stably expressing firefly luciferase (HEK-CMV-Luc2-Hygro)
- Knock-down reagent: single siRNA against human genes, 0.8 pmol siRNA per well
- Timing: 72 h
- Read-out: 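Luciferase light (ONE-Glo) measured on one replicate plate set and viability (CellTiter-Glo) on the other, scaled to a negative control siRNA, with robust z-scores and luciferase per cell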
- Direction: total luciferase, z-score: higher = more reporter protein produced
- Rule for the call: 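Active when the median/MAD z-score for overall luciferase is greater than 3; a gene was taken forward for validation with new siRNAs if at least two of its three siRNAs passed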
- Meaning of the calls: active = raised luciferase; inactive = no rise
Here is an unselected part of about 59,000 reagents. In the full data, about 1,510 (2.6%) got an active call. 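Calls use total luciferase alone and ignore viability, so some active siRNAs may act by altering cell number.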 Unmarked entries are inactive. Reagents against one gene are numbered here. Further read-outs or replicates are left out here. No sequences are given here.

How did the screen score FCRL3 #1?
total luciferase, z-score: -0.441

With FCRL3 #2, what was measured?
total luciferase, z-score: -0.663

Which result is listed for FCRL3 #3?
total luciferase, z-score: 0.156

For STX4 #1, how do the results read?
total luciferase, z-score: -0.0236

For STX4 #2, what was measured?
total luciferase, z-score: 0.184

How did the screen score STX4 #3?
total luciferase, z-score: 0.355

For SLC9C1 #1, what does the deposit list?
total luciferase, z-score: -0.115

For SLC9C1 #2, what was measured?
total luciferase, z-score: -1.02

How did the screen score SLC9C1 #3?
total luciferase, z-score: -0.475

For PRKG1 #1, what was measured?
total luciferase, z-score: 0.237

With PRKG1 #2, how do the results read?
total luciferase, z-score: 1.27

Which result is listed for PRKG1 #3?
total luciferase, z-score: -0.71

What is on record for DNM1L #1?
total luciferase, z-score: 1.62

For DNM1L #2, what does the deposit list?
total luciferase, z-score: 0.778

For DNM1L #3, what does the deposit list?
total luciferase, z-score: -1.09

A run of entries taken from the entries so far:
SLC9C1 #1 → total luciferase, z-score: -0.115
SLC9C1 #2 → total luciferase, z-score: -1.02
SLC9C1 #3 → total luciferase, z-score: -0.475
PRKG1 #1 → total luciferase, z-score: 0.237
PRKG1 #2 → total luciferase, z-score: 1.27

The list goes on.
For ATL1 #1, what was measured?
total luciferase, z-score: -0.686

What is on record for ATL1 #2?
total luciferase, z-score: -0.824

What is on record for ATL1 #3?
total luciferase, z-score: -0.128

For MARF1 #1, what was measured?
total luciferase, z-score: -0.665

With MARF1 #2, what does the deposit list?
total luciferase, z-score: -0.214

Which result is listed for MARF1 #3?
total luciferase, z-score: 1.14

How did the screen score TMEM230 #1?
total luciferase, z-score: 1.79

For TMEM230 #2, how do the results read?
total luciferase, z-score: 2.6

How did the screen score TMEM230 #3?
total luciferase, z-score: -0.256

With LRIG1 #1, what was measured?
total luciferase, z-score: -0.844

For LRIG1 #2, what does the deposit list?
total luciferase, z-score: 1.75

What did the screen give for LRIG1 #3?
total luciferase, z-score: 1.03

How did the screen score SNUPN #1?
total luciferase, z-score: 0.172

How did the screen score SNUPN #2?
total luciferase, z-score: -0.751

How did the screen score SNUPN #3?
total luciferase, z-score: -0.935

For MAGEE1 #1, what does the deposit list?
total luciferase, z-score: 0.441

What did the screen give for MAGEE1 #2?
total luciferase, z-score: 0.211

What is on record for MAGEE1 #3?
total luciferase, z-score: 0.0304
